# Laboratory results as given in publication PMC7177903.
# Columns and labels:
# [1] = target: 5Myc-6His-hBMAL1-C shorter version (BMAL1 579-626) (human); assay: co-IP; HEK-293T cells co-transfected with 5Myc-6His-BMAL1 constructs and CHR-cpVenus constructs; lysed in IP buffer (10 mM Tris pH 7.5, 150 mM NaCl, 1 mM EDTA, 1% Triton X-100, 0.1% sodium deoxycholate); immunoprecipitated with mouse anti-Myc antibodies, detected with anti-GFP antibodies
# [2] = target: 5Myc-6His-hBMAL1-C (BMAL1 514-594) (human); assay: as above
binding [1],binding [2],Binder
binds weakly,,"CHRH3-cpVenus (CHRONO 111-264) (domain or fragment, UniProt Q8N365 111-264) CTTEGDLLFAQKCKELQGFIPPLTDLLNGLKMGRFERGLSSFQQSVAMDRIQRIVGVLQKPQMGERYLGTLLQVEGMLKTWFPQIAAQKSSLGGGKHQLTKHFPSHHSDSAASSPASPMEKMDQTQLGHLALKPKQPWHLTQWPAMNLTWIHTT"
binds,,"CHRH4-cpVenus (CHRONO 111-298) (domain or fragment, UniProt Q8N365 111-298) CTTEGDLLFAQKCKELQGFIPPLTDLLNGLKMGRFERGLSSFQQSVAMDRIQRIVGVLQKPQMGERYLGTLLQVEGMLKTWFPQIAAQKSSLGGGKHQLTKHFPSHHSDSAASSPASPMEKMDQTQLGHLALKPKQPWHLTQWPAMNLTWIHTTPICNPPLSSPGTISFSHGPLGTGTGIGVILFLQH"
binds,no binding,"CHR-cpVenus (full-length CHRONO fused to cpVenus on the C-terminus) (protein, UniProt Q8N365 1-385) MDSPSSVSSYSSYSLSSSFPTSPVNSDFGFPSDSEREDKGAHGPRPDTVGQRGGSRPSPGPIRCRHRSKVSGNQHTPSHPKQRGSASPMAGSGAKRSRDGELETSLNTQGCTTEGDLLFAQKCKELQGFIPPLTDLLNGLKMGRFERGLSSFQQSVAMDRIQRIVGVLQKPQMGERYLGTLLQVEGMLKTWFPQIAAQKSSLGGGKHQLTKHFPSHHSDSAASSPASPMEKMDQTQLGHLALKPKQPWHLTQWPAMNLTWIHTTPICNPPLSSPGTISFSHGPLGTGTGIGVILFLQHGVQPFTHSAPTTPVPPTTASPVIPGEPMKLSGEGPRCYSLPVTLPSDWSYTLSPPSLPTLARKMTIGHREQQRSHPPVAADAHLLNL"

# These are yes or no findings as the source states them, for the method shown. In cells and extracts the contact can be indirect. For some of these results: Binding can be weak; no strength is given. Sequences can lack the tags named with a protein.
